Measurements from paper PMC3511013 (Beilstein Journal of Organic Chemistry, 2012).

Assay: general procedure: Fmoc solid-phase peptide synthesis; Rink amide resin; Oxyma/DIC (double coupling); HATU/DIPEA for Cym2 or CF coupling
Settings: whole synthesis, analytical HPLC
For “Cym2-GFLGLRKRLRKFRNKIKEK-NH2 GLRKRLRKFRNKIKEK”, the “purity (crude or final not stated)” value was greater than 95%.
With “Cym2-GFLGLRKRLRKFRNKIKEK-NH2 Cym2-GFLGLRKRLRKFRNKIKEK” the “purity (crude or final not stated)” value was greater than 90%.
With “PEPTIDE1{[Cbl].G.F.L.G.L.R.K.R.L.R.K.F.R.N.K.I.K.E.K.[am]}|PEPTIDE2{[Cbl].G.F.L.G.L.R.K.R.L.R.K.F.R.N.K.I.K.E.K}$PEPTIDE1,PEPTIDE2,8:R3-20:R2$$$V2.0” the “purity (crude or final not stated)” value was greater than 95%.
In the case of “PEPTIDE1{K.L.A.K.L.A.K.K.L.A.K.L.A.K.G.F.L.G.L.R.K.R.L.R.K.F.R.N.K.I.K.E.K.[am]}|PEPTIDE2{G.L.R.K.R.L.R.K.F.R.N.K.I.K.E.K}$PEPTIDE1,PEPTIDE2,21:R3-16:R2$$$V2.0”, the “purity (crude or final not stated)” value is reported as greater than 99%.

Some peptides are written in HELM: one residue between dots, names in brackets for other building blocks, links after the first $.
